According to the supplement of paper PMC10849652:
The list shows a part of the results. Residues, ends and D or L forms follow the SMILES beside them. *: point of attachment. Cbz = O=C(OCc1ccccc1)*

Amino acid sequences for entries named in this document (tags omitted). A change or cut given only in a name is not applied to a line headed by its entry.
UniProt P09105: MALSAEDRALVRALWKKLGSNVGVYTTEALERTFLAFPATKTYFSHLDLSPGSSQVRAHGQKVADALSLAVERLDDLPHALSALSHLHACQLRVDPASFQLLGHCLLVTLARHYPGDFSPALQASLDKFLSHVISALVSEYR
UniProt Q92522: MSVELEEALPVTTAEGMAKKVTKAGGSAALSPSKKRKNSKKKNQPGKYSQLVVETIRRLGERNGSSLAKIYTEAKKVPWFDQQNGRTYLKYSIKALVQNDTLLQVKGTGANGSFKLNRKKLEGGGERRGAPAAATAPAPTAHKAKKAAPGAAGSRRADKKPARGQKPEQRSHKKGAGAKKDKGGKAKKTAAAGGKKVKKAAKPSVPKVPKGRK
UniProt O00165, whole entry, looked up: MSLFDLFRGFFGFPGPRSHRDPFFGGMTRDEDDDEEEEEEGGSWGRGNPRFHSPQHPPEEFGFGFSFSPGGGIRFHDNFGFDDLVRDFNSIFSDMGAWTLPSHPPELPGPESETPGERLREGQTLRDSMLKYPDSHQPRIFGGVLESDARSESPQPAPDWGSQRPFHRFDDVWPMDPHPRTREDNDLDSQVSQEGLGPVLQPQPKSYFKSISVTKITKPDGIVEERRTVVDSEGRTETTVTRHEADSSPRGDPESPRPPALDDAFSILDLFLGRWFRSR
UniProt Q9Y3E1: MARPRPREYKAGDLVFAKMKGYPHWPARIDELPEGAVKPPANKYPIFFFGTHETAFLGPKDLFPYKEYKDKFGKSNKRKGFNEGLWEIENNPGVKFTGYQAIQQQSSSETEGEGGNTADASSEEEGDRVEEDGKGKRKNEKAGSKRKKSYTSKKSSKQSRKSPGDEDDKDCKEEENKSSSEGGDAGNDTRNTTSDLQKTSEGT
UniProt Q16774: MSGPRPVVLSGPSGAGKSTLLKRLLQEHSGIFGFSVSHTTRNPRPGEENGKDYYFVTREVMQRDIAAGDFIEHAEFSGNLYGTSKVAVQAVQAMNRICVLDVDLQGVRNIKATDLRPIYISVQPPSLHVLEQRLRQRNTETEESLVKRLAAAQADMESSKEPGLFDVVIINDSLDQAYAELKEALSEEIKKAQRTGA
UniProt P78347: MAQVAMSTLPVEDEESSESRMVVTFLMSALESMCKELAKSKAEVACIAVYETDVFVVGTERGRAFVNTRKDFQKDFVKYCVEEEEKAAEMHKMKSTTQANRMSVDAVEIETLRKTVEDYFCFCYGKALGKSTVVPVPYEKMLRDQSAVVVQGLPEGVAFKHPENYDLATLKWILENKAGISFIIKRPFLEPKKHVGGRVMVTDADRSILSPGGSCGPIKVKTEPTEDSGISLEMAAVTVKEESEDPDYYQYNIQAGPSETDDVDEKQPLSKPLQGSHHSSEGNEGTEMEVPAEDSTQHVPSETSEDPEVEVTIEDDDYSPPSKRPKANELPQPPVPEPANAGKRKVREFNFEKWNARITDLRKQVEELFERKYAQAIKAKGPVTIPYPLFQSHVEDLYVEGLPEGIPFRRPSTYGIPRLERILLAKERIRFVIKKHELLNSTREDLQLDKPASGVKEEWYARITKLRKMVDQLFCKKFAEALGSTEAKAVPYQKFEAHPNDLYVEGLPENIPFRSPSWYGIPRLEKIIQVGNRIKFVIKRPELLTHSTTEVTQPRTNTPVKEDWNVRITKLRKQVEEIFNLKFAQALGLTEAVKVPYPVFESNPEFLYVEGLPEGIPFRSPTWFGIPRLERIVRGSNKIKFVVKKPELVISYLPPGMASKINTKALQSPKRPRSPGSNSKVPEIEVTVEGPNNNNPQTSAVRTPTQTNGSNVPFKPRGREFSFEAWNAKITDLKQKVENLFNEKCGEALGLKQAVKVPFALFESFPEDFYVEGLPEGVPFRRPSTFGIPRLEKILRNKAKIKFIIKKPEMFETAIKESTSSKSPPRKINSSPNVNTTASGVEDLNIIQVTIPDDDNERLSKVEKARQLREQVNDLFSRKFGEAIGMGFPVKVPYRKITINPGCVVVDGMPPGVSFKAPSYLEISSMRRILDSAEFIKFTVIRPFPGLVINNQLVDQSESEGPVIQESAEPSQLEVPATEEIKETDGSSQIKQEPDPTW
UniProt Q8NEC7: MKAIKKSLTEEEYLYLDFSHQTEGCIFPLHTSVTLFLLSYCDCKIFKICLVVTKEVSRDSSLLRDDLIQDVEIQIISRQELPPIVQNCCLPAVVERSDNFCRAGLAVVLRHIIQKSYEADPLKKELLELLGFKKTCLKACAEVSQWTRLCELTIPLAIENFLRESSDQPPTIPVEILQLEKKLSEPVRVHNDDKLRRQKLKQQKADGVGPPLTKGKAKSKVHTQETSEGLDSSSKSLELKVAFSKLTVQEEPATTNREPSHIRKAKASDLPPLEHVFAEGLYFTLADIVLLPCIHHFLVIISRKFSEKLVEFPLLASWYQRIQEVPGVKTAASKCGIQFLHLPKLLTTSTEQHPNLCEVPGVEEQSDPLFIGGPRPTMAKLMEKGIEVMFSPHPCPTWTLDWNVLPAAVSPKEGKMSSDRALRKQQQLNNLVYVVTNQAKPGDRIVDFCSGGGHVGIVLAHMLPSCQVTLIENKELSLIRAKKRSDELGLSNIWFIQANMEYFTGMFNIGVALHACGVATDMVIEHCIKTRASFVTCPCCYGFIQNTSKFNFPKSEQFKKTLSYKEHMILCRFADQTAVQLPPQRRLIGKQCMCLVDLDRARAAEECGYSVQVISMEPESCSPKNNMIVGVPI
UniProt P51858: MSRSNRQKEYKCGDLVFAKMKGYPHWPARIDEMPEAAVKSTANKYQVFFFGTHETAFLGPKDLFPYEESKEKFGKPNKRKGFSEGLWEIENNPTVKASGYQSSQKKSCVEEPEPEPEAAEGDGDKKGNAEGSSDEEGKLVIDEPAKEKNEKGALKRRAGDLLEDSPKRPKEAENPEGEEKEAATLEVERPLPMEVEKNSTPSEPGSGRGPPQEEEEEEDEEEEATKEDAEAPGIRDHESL
UniProt Q9Y450, whole entry, looked up: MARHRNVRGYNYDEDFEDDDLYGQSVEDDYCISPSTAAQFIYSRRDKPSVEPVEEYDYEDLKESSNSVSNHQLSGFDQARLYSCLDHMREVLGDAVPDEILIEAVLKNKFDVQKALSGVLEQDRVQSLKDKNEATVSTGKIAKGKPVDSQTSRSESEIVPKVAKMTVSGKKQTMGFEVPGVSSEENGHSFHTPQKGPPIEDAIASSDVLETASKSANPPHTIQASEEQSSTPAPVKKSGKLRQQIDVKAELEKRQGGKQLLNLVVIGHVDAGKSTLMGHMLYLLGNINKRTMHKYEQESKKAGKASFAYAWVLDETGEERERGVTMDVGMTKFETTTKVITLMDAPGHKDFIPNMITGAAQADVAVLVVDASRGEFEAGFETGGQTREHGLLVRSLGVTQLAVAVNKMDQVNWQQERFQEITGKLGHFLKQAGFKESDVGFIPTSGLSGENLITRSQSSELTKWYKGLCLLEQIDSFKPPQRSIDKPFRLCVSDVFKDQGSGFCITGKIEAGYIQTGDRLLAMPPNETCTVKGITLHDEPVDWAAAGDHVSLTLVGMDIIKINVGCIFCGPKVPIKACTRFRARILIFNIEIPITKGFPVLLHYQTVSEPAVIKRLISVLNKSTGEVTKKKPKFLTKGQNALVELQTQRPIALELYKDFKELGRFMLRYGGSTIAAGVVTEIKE
UniProt P48637: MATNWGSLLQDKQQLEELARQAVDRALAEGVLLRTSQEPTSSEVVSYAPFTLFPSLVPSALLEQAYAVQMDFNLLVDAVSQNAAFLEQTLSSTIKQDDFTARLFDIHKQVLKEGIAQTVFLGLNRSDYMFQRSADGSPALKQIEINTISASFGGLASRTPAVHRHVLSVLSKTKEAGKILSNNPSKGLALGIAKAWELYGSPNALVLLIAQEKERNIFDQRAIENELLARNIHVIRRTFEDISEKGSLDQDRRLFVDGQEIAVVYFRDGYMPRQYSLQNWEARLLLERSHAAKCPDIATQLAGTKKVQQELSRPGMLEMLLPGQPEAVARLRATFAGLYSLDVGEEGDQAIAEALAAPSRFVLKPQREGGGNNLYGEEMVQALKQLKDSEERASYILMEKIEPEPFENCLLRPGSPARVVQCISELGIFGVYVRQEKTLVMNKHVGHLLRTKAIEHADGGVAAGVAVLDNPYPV
UniProt Q8TDG4: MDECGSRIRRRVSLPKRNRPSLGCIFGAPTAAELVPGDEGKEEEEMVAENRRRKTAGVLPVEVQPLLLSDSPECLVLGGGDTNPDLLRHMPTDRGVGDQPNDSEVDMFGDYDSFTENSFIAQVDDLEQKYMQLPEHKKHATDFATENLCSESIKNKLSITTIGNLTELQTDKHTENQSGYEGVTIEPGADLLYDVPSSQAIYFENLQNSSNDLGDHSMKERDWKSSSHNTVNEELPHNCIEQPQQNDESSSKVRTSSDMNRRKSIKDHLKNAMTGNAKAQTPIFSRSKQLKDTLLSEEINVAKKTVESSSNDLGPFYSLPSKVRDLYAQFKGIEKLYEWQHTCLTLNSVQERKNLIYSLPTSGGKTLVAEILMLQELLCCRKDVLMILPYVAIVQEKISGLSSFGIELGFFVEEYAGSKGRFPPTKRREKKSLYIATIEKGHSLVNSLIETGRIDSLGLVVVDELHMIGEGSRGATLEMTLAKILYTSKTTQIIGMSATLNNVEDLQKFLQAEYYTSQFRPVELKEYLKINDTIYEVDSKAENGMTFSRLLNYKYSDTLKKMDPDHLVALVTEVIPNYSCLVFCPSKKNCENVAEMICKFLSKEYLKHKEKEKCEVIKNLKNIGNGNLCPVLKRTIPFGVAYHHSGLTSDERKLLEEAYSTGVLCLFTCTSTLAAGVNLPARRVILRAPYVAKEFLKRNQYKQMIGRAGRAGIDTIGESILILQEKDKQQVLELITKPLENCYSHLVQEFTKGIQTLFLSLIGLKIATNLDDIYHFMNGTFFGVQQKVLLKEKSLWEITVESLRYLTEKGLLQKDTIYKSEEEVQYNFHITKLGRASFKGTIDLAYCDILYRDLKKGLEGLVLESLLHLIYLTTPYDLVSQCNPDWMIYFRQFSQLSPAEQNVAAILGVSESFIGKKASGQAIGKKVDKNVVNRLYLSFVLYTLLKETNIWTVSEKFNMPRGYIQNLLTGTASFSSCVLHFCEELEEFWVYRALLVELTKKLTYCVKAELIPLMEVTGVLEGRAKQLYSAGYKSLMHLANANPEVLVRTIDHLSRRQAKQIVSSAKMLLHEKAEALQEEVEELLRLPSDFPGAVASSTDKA
UniProt P15170, whole entry, looked up: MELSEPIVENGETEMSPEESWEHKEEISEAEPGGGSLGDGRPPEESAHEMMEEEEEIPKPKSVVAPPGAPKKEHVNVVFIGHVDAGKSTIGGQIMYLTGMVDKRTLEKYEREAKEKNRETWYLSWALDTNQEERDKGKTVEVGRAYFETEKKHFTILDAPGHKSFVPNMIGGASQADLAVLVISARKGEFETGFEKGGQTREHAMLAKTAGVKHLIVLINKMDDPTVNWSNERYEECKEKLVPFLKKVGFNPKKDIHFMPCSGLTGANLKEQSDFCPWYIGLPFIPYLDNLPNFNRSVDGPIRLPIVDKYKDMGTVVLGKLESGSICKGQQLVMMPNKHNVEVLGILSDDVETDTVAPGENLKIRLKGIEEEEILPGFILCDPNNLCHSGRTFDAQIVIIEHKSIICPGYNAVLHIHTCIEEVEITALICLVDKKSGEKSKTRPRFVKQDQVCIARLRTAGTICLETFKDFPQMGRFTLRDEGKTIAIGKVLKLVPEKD
UniProt O14929: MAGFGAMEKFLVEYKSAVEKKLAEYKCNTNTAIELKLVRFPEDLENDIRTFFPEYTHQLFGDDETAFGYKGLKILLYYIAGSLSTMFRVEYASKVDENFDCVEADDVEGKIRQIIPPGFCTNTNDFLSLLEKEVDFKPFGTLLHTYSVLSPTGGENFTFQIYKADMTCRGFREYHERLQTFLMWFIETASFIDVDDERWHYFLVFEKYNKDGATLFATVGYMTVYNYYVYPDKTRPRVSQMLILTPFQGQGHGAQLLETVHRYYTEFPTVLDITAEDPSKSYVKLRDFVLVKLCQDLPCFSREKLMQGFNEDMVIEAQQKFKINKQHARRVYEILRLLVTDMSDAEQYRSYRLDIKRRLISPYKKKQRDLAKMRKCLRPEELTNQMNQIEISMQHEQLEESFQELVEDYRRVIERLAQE
UniProt Q9Y5Z4: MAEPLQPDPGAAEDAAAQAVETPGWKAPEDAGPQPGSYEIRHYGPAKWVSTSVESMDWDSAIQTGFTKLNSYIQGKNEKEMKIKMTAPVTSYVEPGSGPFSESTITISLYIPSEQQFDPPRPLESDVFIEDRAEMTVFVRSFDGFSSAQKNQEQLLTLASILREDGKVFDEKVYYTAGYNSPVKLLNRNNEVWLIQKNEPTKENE

What was measured:
Assay in all cases: log2 fold change, soluble protein after heating vs DMSO (PISA); higher = thermal stabilisation; K562 cells, 10 uM, 30 min; active = over 0.2 and 3.5 SD of the protein, either way, in both replicates (recomputed)
IRAK-1-4 Inhibitor I = compound: C1COCCN1CCN2C3=CC=CC=C3N=C2NC(=O)C4=CC(=CC=C4)[N+](=O)[O-] [IRAK-1-4 Inhibitor I]
Procedure, shortened: (§1)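 Thermal stability values are relative to control samples and come from duplicates. They are expressed as log2 fold changes. For measurement, K562 cells (2×10^6 cells/mL) received 10 μM compound for 30 min, and aliquots were heated for 3 min over 48°C-58°C, pooled, and extracted at 4°C in PBS with 0.5% NP-40. Soluble protein, the supernatant after 21,000xg for 90 min, was quantified by TMTpro 16plex LC-MS/MS with equalised channel sums.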

ibrutinib = compound: C=CC(=O)N1CCC[C@@H](n2nc(-c3ccc(Oc4ccccc4)cc3)c3c(N)ncnc32)C1 [ibrutinib]
Procedure, shortened: as §1

[1] = compound: CC(=O)c1cnc2ccc(-c3cc(Cl)c(O)c(Cl)c3)nc2c1N[C@H]1CC[C@H](CN(C)C)CC1
Procedure, shortened: as §1

ralimetinib = compound: CC(C)(C)Cn1c(N)nc2ccc(-c3[nH]c(C(C)(C)C)nc3-c3ccc(F)cc3)nc21 [ralimetinib]
Procedure, shortened: as §1

[2] = compound: CC(C)(O)CC(=O)NCCn1ccc2ncnc(Nc3ccc(Oc4cccc(C(F)(F)F)c4)c(Cl)c3)c21
Procedure, shortened: as §1

[3] = compound: CC(C)C1=C2N=C(C=C(N2N=C1)NCC3=CC=CC=C3)NCCCCCCN
Procedure, shortened: as §1

[4] = compound: CC(C)C[C@@H](C=O)NC(=O)[C@H](CC(C)C)NC(=O)[C@H](CC(C)C)NC(=O)OCc1ccccc1
Procedure, shortened: as §1

pinometostat = compound: CC(C)N(C[C@H]1O[C@@H](n2cnc3c(N)ncnc32)[C@H](O)[C@@H]1O)[C@H]1C[C@@H](CCc2nc3cc(C(C)(C)C)ccc3[nH]2)C1 [pinometostat]
Procedure, shortened: as §1

[5] = compound: CC1=C(C2=C(C=C1)C(=O)C3=CC=CC=C3N2CCCN)C
Procedure, shortened: as §1

[6] = compound: CC1=C(C=C(C=C1)NC(=O)C2=CC(=CC=C2)C(C)(C)C#N)NC3=CC4=C(C=C3)N=CN(C4=O)C
Procedure, shortened: as §1

[7] = compound: CC1=C(C=C(C=C1)NC(=O)C2=CC(=CC=C2)N(C)C)NC(=O)C3=CC=C(C=C3)O
Procedure, shortened: as §1

[8] = compound: CC1=CC=C(C=C1)SC2=C3C=C(SC3=CN=C2)C(=O)N
Procedure, shortened: as §1

[9] = compound: CC1=NC(=CC=C1)C2=C(N=C(N2)C(C)(C)C)C3=CC4=NC=CN=C4C=C3
Procedure, shortened: as §1

Nexturastat A = compound: CCCCN(Cc1ccc(C(=O)NO)cc1)C(=O)Nc1ccccc1 [Nexturastat A]
Procedure, shortened: as §1

vemurafenib = compound: CCCS(=O)(=O)Nc1ccc(F)c(C(=O)c2c[nH]c3ncc(-c4ccc(Cl)cc4)cc23)c1F [vemurafenib]
Procedure, shortened: as §1

[10] = compound: CCCS(=O)(=O)Nc1ccc(F)c(C(=O)c2c[nH]c3ncc(Cl)cc23)c1F
Procedure, shortened: as §1

[11] = compound: CCCc1cc(C)[nH]c(=O)c1CNC(=O)c1cc(-c2ccnc(N3CCN(C)CC3)c2)cc2c1cnn2C(C)C
Procedure, shortened: as §1

givinostat = compound: CCN(CC)Cc1ccc2cc(COC(=O)Nc3ccc(C(=O)NO)cc3)ccc2c1 [givinostat]
Procedure, shortened: as §1

barasertib = compound: CCN(CCCOc1ccc2c(Nc3cc(CC(=O)Nc4cccc(F)c4)[nH]n3)ncnc2c1)CCOP(=O)(O)O [barasertib]
Procedure, shortened: as §1

[12] = compound: CC1=C(C(CC(=O)N1)C2=CC=C(C=C2)C(F)(F)F)C(=O)NC3=C(C=C4C(=C3)C=NN4)F
Procedure, shortened: as §1

Measured: log2 fold change

H2AFX (UniProt P16104)
active: [5] 1.02
inactive: IRAK-1-4 Inhibitor I -0.049 | ibrutinib 0.077 | [1] 0.044 | ralimetinib 0.193 | [2] 0.036 | [3] -0.008 | [4] 0.308 | pinometostat 0.368 | [6] -0.088 | [7] -0.006 | [8] -0.231 | [9] -0.073 | Nexturastat A 0.754 | vemurafenib -0.232 | [10] 0.329 | [11] 0.1 | givinostat 0.328 | barasertib -0.11

HBQ1 (UniProt P09105)
inactive: IRAK-1-4 Inhibitor I 0.003 | ibrutinib 0.016 | [1] 0.01 | ralimetinib -0.034 | [2] -0.078 | [3] 0.095 | [4] -0.102 | pinometostat 0.004 | [5] 0.147 | [6] 0.053 | [7] -0.14 | [8] 0.025 | [9] 0.052 | Nexturastat A -0.028 | vemurafenib -0.013 | [10] 0.004 | [11] -0.012 | givinostat -0.043 | barasertib 0.038

H1FX (UniProt Q92522)
inactive: IRAK-1-4 Inhibitor I -0.171 | ibrutinib 0.077 | [1] 0.231 | ralimetinib 0.204 | [2] 0.031 | [3] 0.13 | [4] 0.09 | pinometostat 0.246 | [6] 0.081 | [7] -0.059 | [8] -0.106 | [9] -0.222 | Nexturastat A 0.278 | vemurafenib -0.083 | [10] -0.077 | [11] 0.176 | givinostat -0.034 | barasertib -0.129
active: [5] -0.718

HAX1 (UniProt O00165)
inactive: IRAK-1-4 Inhibitor I -0.017 | ibrutinib -0.036 | [1] -0.07 | ralimetinib 0.026 | [2] -0.156 | [4] 0.045 | pinometostat 0.107 | [5] 0.065 | [6] -0.018 | [7] -0.101 | [8] 0.03 | [9] -0.058 | Nexturastat A 0.066 | vemurafenib -0.012 | [10] 0.082 | [11] 0.045 | givinostat 0.009 | barasertib 0.046
active: [3] -0.498

HDGFL3 (UniProt Q9Y3E1)
inactive: IRAK-1-4 Inhibitor I 0.02 | ibrutinib 0.018 | [1] -0.017 | ralimetinib -0.052 | [2] 0.034 | [3] 0.094 | [4] 0.009 | pinometostat -0.018 | [12] 0.044 | [5] 0.089 | [6] -0.033 | [7] -0.02 | [8] 0.015 | [9] 0.014 | Nexturastat A -0.009 | vemurafenib -0.03 | [10] -0.012 | [11] -0.06 | givinostat -0.009 | barasertib 0.027

GUK1 isoform 2 (UniProt Q16774)
inactive: IRAK-1-4 Inhibitor I -0.076 | ibrutinib -0.033 | [1] -0.162 | ralimetinib 0.038 | [2] -0.234 | [3] -0.033 | [4] 0.167 | pinometostat -0.037 | [5] 0.092 | [6] 0.173 | [7] -0.062 | [8] -0.018 | [9] 0.093 | Nexturastat A -0.065 | vemurafenib 0.118 | [10] -0.002 | [11] 0.026 | givinostat 0.072 | barasertib -0.018

GTF2I (UniProt P78347)
inactive: IRAK-1-4 Inhibitor I -0.044 | ibrutinib 0.099 | [1] -0.061 | ralimetinib -0.005 | [2] -0.018 | [3] -0.099 | [4] 0.238 | pinometostat 0.149 | [12] 0.023 | [5] -0.105 | [6] 0.013 | [7] -0.067 | [8] 0.017 | [9] -0.059 | Nexturastat A 0.184 | vemurafenib -0.097 | [10] 0.091 | [11] -0.077 | givinostat 0.119 | barasertib 0.163

GSTCD (UniProt Q8NEC7)
inactive: IRAK-1-4 Inhibitor I -0.071 | ibrutinib 0.044 | [1] 0.052 | ralimetinib 0.048 | [2] -0.152 | [3] -0.191 | [4] 0.09 | pinometostat 0.096 | [12] -0.055 | [5] 0.183 | [6] -0.008 | [7] 0.001 | [8] 0.086 | [9] 0.022 | Nexturastat A 0.043 | vemurafenib 0.063 | [10] -0.011 | [11] 0.192 | givinostat -0.016 | barasertib -0.071

Pulled one by one from the list above, 2 records:
H2AFX (UniProt P16104)
active: [5] 1.02
inactive: IRAK-1-4 Inhibitor I -0.049 | ibrutinib 0.077 | [1] 0.044 | ralimetinib 0.193 | [2] 0.036 | [3] -0.008 | [4] 0.308 | pinometostat 0.368 | [6] -0.088 | [7] -0.006 | [8] -0.231 | [9] -0.073 | Nexturastat A 0.754 | vemurafenib -0.232 | [10] 0.329 | [11] 0.1 | givinostat 0.328 | barasertib -0.11

GTF2I (UniProt P78347)
inactive: IRAK-1-4 Inhibitor I -0.044 | ibrutinib 0.099 | [1] -0.061 | ralimetinib -0.005 | [2] -0.018 | [3] -0.099 | [4] 0.238 | pinometostat 0.149 | [12] 0.023 | [5] -0.105 | [6] 0.013 | [7] -0.067 | [8] 0.017 | [9] -0.059 | Nexturastat A 0.184 | vemurafenib -0.097 | [10] 0.091 | [11] -0.077 | givinostat 0.119 | barasertib 0.163

Next results follow:

HDGF (UniProt P51858)
inactive: IRAK-1-4 Inhibitor I 0.021 | ibrutinib -0.001 | [1] 0.013 | ralimetinib 0.015 | [2] 0.003 | [3] -0.023 | [4] -0.002 | pinometostat -0.047 | [12] 0.026 | [5] -0.103 | [6] -0.081 | [7] 0.005 | [8] 0.011 | [9] 0.066 | Nexturastat A 0.013 | vemurafenib -0.012 | [10] 0.017 | [11] -0.019 | givinostat 0.013 | barasertib 0.043

HBS1L isoform 2 (UniProt Q9Y450)
inactive: IRAK-1-4 Inhibitor I -0.212 | ibrutinib 0.011 | [1] -0.21 | ralimetinib -0.023 | [2] -0.019 | [3] -0.099 | [4] -0.028 | pinometostat -0.008 | [12] 0.14 | [5] 0.028 | [6] 0.076 | [7] -0.048 | [8] 0.125 | [9] 0.133 | Nexturastat A 0.035 | vemurafenib 0.071 | [10] 0.124 | [11] 0.026 | givinostat 0.043 | barasertib -0.004

GSS (UniProt P48637)
inactive: IRAK-1-4 Inhibitor I 0.038 | ibrutinib 0 | [1] 0.002 | ralimetinib -0.013 | [2] -0.013 | [3] 0.059 | [4] -0.028 | pinometostat -0.053 | [12] 0.016 | [5] 0.002 | [6] -0.017 | [7] 0.01 | [8] 0.032 | [9] 0.012 | Nexturastat A -0.08 | vemurafenib -0.009 | [10] 0.015 | [11] -0.024 | givinostat -0.072 | barasertib -0.014

HELQ (UniProt Q8TDG4)
inactive: IRAK-1-4 Inhibitor I -0.009 | ibrutinib -0.075 | [1] 0.042 | ralimetinib -0.037 | [2] 0.02 | [3] 0.088 | [4] 0.049 | pinometostat -0.019 | [12] -0.198 | [5] -0.013 | [6] 0.065 | [7] -0.1 | [8] 0.067 | [9] -0.005 | Nexturastat A -0.051 | vemurafenib -0.175 | [10] -0.002 | [11] -0.006 | givinostat -0.084 | barasertib 0.047

HEXIM1 (UniProt O94992)
inactive: IRAK-1-4 Inhibitor I 0.012 | ibrutinib -0.007 | [1] 0.009 | ralimetinib -0.036 | [2] 0.014 | [3] 0.138 | [4] 0.017 | pinometostat -0.021 | [12] -0.004 | [5] 0.081 | [6] -0.023 | [7] 0.049 | [8] -0.054 | [9] -0.093 | Nexturastat A -0.034 | vemurafenib -0.019 | [10] -0.076 | [11] -0.035 | givinostat 0.028 | barasertib -0.027

GSPT1 isoform 3 (UniProt P15170)
inactive: IRAK-1-4 Inhibitor I 0.058 | ibrutinib -0.01 | [1] 0 | ralimetinib -0.033 | [2] -0.029 | [3] 0.015 | [4] -0.01 | pinometostat 0.005 | [12] -0.028 | [5] 0.12 | [6] 0.056 | [7] -0.001 | [8] -0.014 | [9] -0.002 | Nexturastat A -0.036 | vemurafenib -0.008 | [10] 0 | [11] -0.064 | givinostat -0.043 | barasertib 0.003

HAT1 (UniProt O14929)
inactive: IRAK-1-4 Inhibitor I 0.027 | ibrutinib -0.009 | [1] -0.109 | ralimetinib -0.003 | [2] -0.027 | [3] 0.006 | [4] -0.022 | pinometostat -0.048 | [5] -0.03 | [6] 0.042 | [7] -0.037 | [8] 0.008 | [9] 0.095 | Nexturastat A -0.034 | vemurafenib 0.087 | [10] 0.013 | [11] 0.007 | givinostat 0.005 | barasertib 0.025

HEBP2 (UniProt Q9Y5Z4)
inactive: IRAK-1-4 Inhibitor I 0.055 | ibrutinib -0.046 | [1] 0.008 | ralimetinib -0.094 | [2] 0.016 | [3] 0.048 | [4] -0.022 | pinometostat -0.042 | [12] -0.003 | [5] 0 | [6] -0.011 | [7] 0.013 | [8] 0.015 | [9] 0.036 | Nexturastat A -0.016 | vemurafenib -0.012 | [10] 0.034 | [11] -0.024 | givinostat 0.003 | barasertib 0.025
